In PubChem BioAssay AID1347423 (Functional Genomics Laboratory (NCATS/FGL), 2020):
In all, about 52,000 sequences went through this assay and about 210 (0.4%) were called active.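 How the source made its calls: active means gene whose silencing raises cell survival under the drug, median off-target-corrected z-score across its silencing RNAs 2 or more; inactive means the rest.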 Some of the results follow.

Experiment: Resistance to Poly (ADP-Ribose) Polymerase inhibitor: Gene Identification via Genome-wide siRNA Screen
Settings: mouse BRCA2 R2336H ES cells, olaparib, CellTiter-Glo viability; stronger effect = higher value
Method in brief: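 Mouse BRCA2 R2336H ES cells were reverse-transfected with siRNA (20 nM final), treated at 48 h with 500 nM olaparib, and read by CellTiter-Glo after 72 h. Scores: MAD-based z per siRNA, median per gene, seed off-target correction.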

Row | Sequence | z-score
1 | GCGUGGAAGGUCUGAACACTT against Arfgap3 | inactive: 0.421
2 | GCGUGCUUAUGAACAUAGUTT against Mint | inactive: -0.0656
3 | GGAGACAAAUAUGAUGUAUTT against Hook1 | inactive: -1.94
4 | GCCACACCAAUAGAAGUGUTT against Csnk1g3 | inactive: 0.184
5 | CCUCUGAGUGAUACACUGUTT against Klk9 | inactive: -0.266
6 | CCGUGGUUAUUUAGGACAATT against Rnf33 | inactive: -1.29
7 | GGAAUGGUAAUGCUAUUGGTT against 2610033C09Rik | inactive: -1.04
8 | GGAACCUGAUCCACUACUATT against H2-Bl | inactive: -0.335
9 | GCCCUAGCAAAAUAUGUUUTT against 1700009P03Rik | inactive: 0.439
10 | GGACAGGACCAAAAGGACUTT against Klk4 | inactive: -0.254
11 | GGUAUGUUUUAUCUUGACATT against Olfr851 | inactive: -0.218
12 | GCUAGUUACAAGCAAGCAGTT against 1700065O13Rik | inactive: 0.219
13 | GCUUAAGCAGAAUGGUGCUTT against Arid3b | inactive: 2.25
14 | GGUGGAGAACUAUUACAGCTT against Myf5 | inactive: 0.18
15 | CCUACAUUCCAUUUUAAUGTT against Hydin | inactive: -0.178
16 | GGAAUUUGAUUCUGAAGAATT against Gmnn | inactive: -1.45
17 | GGAUAACGUAAUGAAGAUCTT against Fgfr1 | inactive: 1.57
18 | GGCACAGCAGUCUUGAGCUTT against Retn | inactive: -0.00451
19 | GGAUUCAAAUGUUCAAAGGTT against Il27 | inactive: -0.42
20 | GGCAAUGGAGAGAGAGAUGTT against AV312086 | inactive: -0.714
21 | CCACUCACUUUCGUAUCUUTT against AI427100 | inactive: 0.862
22 | GCUAUGAACUCCACAUCUATT against Mov10 | inactive: 0.43
23 | GGGUCUGAUCUGUAAUUCATT against Svs7 | inactive: -0.251

Row | Sequence | z-score
24 | GGCCAUCAGAGCUACACUUTT against Gpa33 | inactive: 0.157
25 | GGAUUGGAGGUCUUAAAACTT against Mbtps1 | inactive: -0.828
26 | CCCAGUAUGGUCCAUGAAGTT against 4930566A11Rik | inactive: 2.09
27 | CGGAUUGAUUUCUGAUGCGTT against Krt2-39 | inactive: -0.934
28 | GGAACCAGAGACAUUGUUUTT against Pola2 | inactive: -2.26
29 | GGAGAUACGGGACAGAGUGTT against Olfr655 | inactive: -1.65
30 | CCGUGAAAAAAUUAAACAGTT against Slk | inactive: 1.4
31 | GGAACAAAUGUUCGAAAUGTT against Eif4a2 | inactive: 0.734
32 | GCCCGGAAGUUUGUUAAAGTT against Mtrr | inactive: 0.168
33 | GGAGAAUAUCCUCCCAGGATT against Cdca2 | inactive: 0.0564
34 | GGCAAAUGGGAAGAAUUCCTT against Mep1b | inactive: -0.00969
35 | GGACCUAAAAAUGGUAUAUTT against Lrp1b | inactive: -2.48
36 | GGGCACCUAGUUUCCAUGATT against Cox7b | inactive: 2.21
37 | GGCAAAGACGACCUCUCACTT against BC032925 | inactive: 1.73
38 | GGUAAUGAUUUGUUAACAGTT against 5730446C15Rik | inactive: -0.674
39 | GGCAUUCCCAUCAAGAGCATT against Dncl2a | inactive: 0.483
40 | GGAUCCCAUUAGAAAGAAATT against Cbx2 | inactive: 0.093
41 | GCCUGCUAUUUAAUUCAUATT against B930006L02Rik | inactive: 0.0292
42 | GGCGAUAUUCUUAAUUAUCTT against 2210010L05Rik | inactive: 0.347
43 | GGAAAUAAGACUCAGGUCATT against Gtf2a1 | inactive: -1.44
44 | GCCGAAAUUGUGUCUCUGUTT against Insig1 | inactive: -0.737
45 | GGUUAUAACACCAGAUGGGTT against 4833421E05Rik | inactive: -0.283
46 | GGCCUUCAAGGUAUUCGACTT against Cabp7 | inactive: -0.7

Given in markdown: part of the list above

| Row | Sequence | z-score |
| --- | --- | --- |
| 7 | GGAAUGGUAAUGCUAUUGGTT against 2610033C09Rik | inactive: -1.04 |
| 8 | GGAACCUGAUCCACUACUATT against H2-Bl | inactive: -0.335 |
| 9 | GCCCUAGCAAAAUAUGUUUTT against 1700009P03Rik | inactive: 0.439 |
| 10 | GGACAGGACCAAAAGGACUTT against Klk4 | inactive: -0.254 |
| 11 | GGUAUGUUUUAUCUUGACATT against Olfr851 | inactive: -0.218 |
| 12 | GCUAGUUACAAGCAAGCAGTT against 1700065O13Rik | inactive: 0.219 |
| 13 | GCUUAAGCAGAAUGGUGCUTT against Arid3b | inactive: 2.25 |
| 14 | GGUGGAGAACUAUUACAGCTT against Myf5 | inactive: 0.18 |
| 15 | CCUACAUUCCAUUUUAAUGTT against Hydin | inactive: -0.178 |
| 16 | GGAAUUUGAUUCUGAAGAATT against Gmnn | inactive: -1.45 |
| 17 | GGAUAACGUAAUGAAGAUCTT against Fgfr1 | inactive: 1.57 |
| 18 | GGCACAGCAGUCUUGAGCUTT against Retn | inactive: -0.00451 |
| 19 | GGAUUCAAAUGUUCAAAGGTT against Il27 | inactive: -0.42 |
| 20 | GGCAAUGGAGAGAGAGAUGTT against AV312086 | inactive: -0.714 |
| 21 | CCACUCACUUUCGUAUCUUTT against AI427100 | inactive: 0.862 |

Continuation.

Row | Sequence | z-score
47 | CCAUUCCUGGAGAUGGUUGTT against 5031410I06Rik | inactive: 1.44
48 | GCUUCAUAUAGACAAAGCCTT against Epo | inactive: 0.197
49 | CCCUGAACGCAUCACUAUCTT against Nlgn2 | inactive: -1.15
50 | GGAGAAGCAAACUGCACCUTT against Cacng6 | inactive: 0.673
51 | GGUGUAGCUCUUGAUUAAUTT against Icmt | inactive: 1.62
52 | GCCCGGAAUUUCUCCUUCATT against ORF31 | inactive: -0.437
53 | GUGCUUUUCGACUGCAUGATT against BC021785 | inactive: 0.459
54 | CCCAUGAACAUUCCCUUAATT against Prdx1 | inactive: 1.01
55 | GGAGAAAUAGAUUCAGUGATT against 4933426L22Rik | inactive: -1.73
56 | GGUUCCUGGAUGGUUCCUATT against BC032925 | inactive: -1.26
57 | GGGUGCCCUUUGUCAUGUATT against Rapgef3 | inactive: 0.705
58 | GGUGGAUUUUGAAACUAUUTT against Pcdhb17 | inactive: 1.16
59 | GGUGGUACUUACUCAAAAUTT against Fgg | inactive: 0.299
60 | GGUUAUUACCCAGUUCACGTT against Pramel1 | inactive: -0.588
61 | GGCAGGUUUAACUUUAAUGTT against Cacna1e | inactive: -0.0891
62 | GCAUAUGGCACCACAUUGUTT against Psg25 | inactive: 0.258
63 | CCAAGAUGUGAAAUUCACCTT against Efnb2 | inactive: 1.51
64 | GGCAUGCUGAUGGAGUUUUTT against Vip | inactive: 0.725
65 | GGAAAACCAUACCAAAAUGTT against Hmox2 | inactive: -0.474
66 | CCCAGAUCCUUACUGACUGTT against Tada3l | inactive: -0.913
67 | GCCACCUGGUUAAAUUAAATT against Ceacam9 | inactive: 0.288
